Results published in US20250082781A1, “METHODS OF LOWERING BLOOD GLUCOSE AND TREATING TYPE 2 DIABETES BY ACTIVATION OF PDE4D3” (Salk Institute for Biological Studies, priority 2021, published 2025).
For at least one compound, name, drawing or mass did not settle the structure.

Columns and labels:
3T3-L1 adipocytes = assay: In vitro lipolysis assay (FFA release), 3T3-L1 adipocytes; type: cell-based; settings: wortmannin 5 μM, FGF1 100 ng/ml
Protocol: Differentiation of pre-adipocytes were based on previously published methods (Bunnell et al., 2008). Briefly, 3T3-L1 pre-adipocytes were grown to full confluence in DMEM, 10% FBS (GemCell, 100-500), 10 mM HEPES and antibiotic-antimycotic (full growth media). 2 days later, differentiation was induced by replacing the media with 1 μM dexamethasone, 1 μM rosiglitazone, 500 μM IBMX and 5 μg/ml insulin in full growth media 2 days later after reaching full confluence. Two days later media was replaced by differentiation induction media with 1 μM rosiglitazone and 5 μg/ml insulin for 4 days with media change after 2 days. Cells were kept in maintenance medium (full growth media with 5 μg/ml insulin) for 4 more days for full differentiation. For differentiation of mouse SVF derived adipocytes, the protocol was same except DMEM/F12 (10565018, ThermoFisher) was used as base media and initial differentiation induction media was kept for 3 days. For differentiation of human subcutaneous adipocytes, protocol and media from the manufacturer (C-12735, C-39437, Promocell) were used. […]
For in vitro lipolysis assay, cells were washed with PBS and media were changed to full growth media 1 day before experiment. […] FFAs were measured in the media using a commercial kit (Wako-NEFAHR2) and normalized to protein concentration. […] FFAs were measured and normalized by the explant weights.

PDE4D = assay: Western blot of PDE4D phosphorylation in 3T3-L1 adipocytes; type: cell-based; settings: wortmannin 5 μM 30 min before FGF1 100 ng/ml
Protocol: Tissues were lysed in cold lysis buffer (50 mM Tris, pH 7.5, 150 mM NaCl, 1% NP40, 0.5% NaDoc, 0.1% SDS, 5% glycerol, 1 mM EDTA, protease and phosphatase inhibitors (complete and PhosSTOP (Roche)) by homogenization by bead-beater for 30 s. Samples were cleared for 10 min at 18,000 g at 4° C. and the middle clear phase was transferred to new tubes. A second 30 min centrifugation was performed and the middle clear phase was transferred to new tubes. Five ul protein extract was used for BCA assay to determine protein concentration. Samples were boiled in Laemmli buffer. SDS-PAGE and blotting were performed using gradient gels and Trans-Blot Turbo Transfer System (Bio-Rad). Antibodies used were PDE4D (12918-1-AP, Proteintech), pHSL-660 (4126S, Cell signaling), HSL (4107S, Cell Signaling), tubulin (CP06, Millipore Sigma), and GFP (A01388, GenScript). PDE4D3-pS44 phospho-specific antibody was generated using PDE4D3-S44 FRRHpSWISFDVDNGTSAGR peptide (SEQ ID NO: 20) (Mackenzie et al., 2002) by Pocono Rabbit Farm, using 70-day rabbit antibody production protocol and purified via affinity purification. Primary antibodies were incubated for 2 h at room temperature (RT) or overnight (ON) at 4° C. Blots were developed using SuperSignal West Pico PLUS Chemiluminescent Substrate (ThermoFisher Scientific) and imaged with BioRad GelDoc system.

COC[C@H]1OC(=O)c2coc3c2[C@@]1(C)C1=C(C3=O)[C@@H]2CCC(=O)[C@@]2(C)C[C@H]1OC(C)=O [wortmannin, reference compound]
effect on FGF1-induced reduction in FFA release (3T3-L1 adipocytes): abrogated the FGF1-induced reduction in FFA release | FGF1 induced S44 phosphorylation with wortmannin (PDE4D): inhibited
